# From PubChem BioAssay AID1347076 (National Center for Advancing Translational Sciences (NCATS), 2019)
# Hit rate of the full screen: of about 400,000 compounds, about 13,000 (3.2%) were called active. Inconclusive means that the source gave no clear call. Such entries were picked first, then a sample of the others. The call rests on the fitted dose curve; in most records, active means well fitted cell-killing curve with a large enough effect; inconclusive means small, poorly fitted or top-dose-only effect, or effect the other way; inactive means flat fitted curve, though single readings scatter. A potency beside an inconclusive call is a rough fit, not a confirmed value.
# Experiment: qHTS assay for MDR1-selective chemotherapeutics: Primary screen using the drug-selected MDR subline cells KB-V1; further: nearly all actives have a fitted effect of over 60% in size
# Details: KB-V1 MDR cells viability, CellTiter-Glo, 72 h; series mostly up to 46.1 µM
# Outline: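 Compound-treated KB-V1 multidrug-resistant cells, 72 h, 37 degrees C; viability by CellTiter-Glo. Fitted qHTS curves give the values.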
# Potency means the concentration at half of the fitted maximal effect.
row,Structure (SMILES),Potency
1,Cc1ccc([N+](=O)[O-])cc1S(=O)(=O)NCCc1c(C)[nH]c2c(C)cccc12,inactive
2,CCc1ccccc1NC(=O)Nc1cc(C(=O)NCc2ccc(C(C)C)cc2)ccc1N1CCCC1,inactive
3,COc1ccc(C2=Nc3ccccc3N(C(=O)c3ccc(C(F)(F)F)cc3)C2C(=O)NCc2ccccc2)cc1 (centres undefined),"inconclusive: 3.26 µM [cytotoxic, partial curve, poor fit]"
4,CCCCCCn1c(=O)[nH]c2nc3cc(N)c(C)cc3nc2c1=O,"inconclusive: 29.1 µM [cytotoxic, single point]"
5,CC(=O)c1c(C)n(CC(=O)NCc2ccc3c(c2)OCO3)c2ccccc12,active: 2.91 µM
6,COc1ccc(N(CCCN2C(=O)c3cccc4cccc(c34)C2=O)C(=O)c2cccnc2)cc1,"inconclusive: 7.31 µM [cytotoxic, partial curve]"
7,CCCCC1C(C#N)=C(C)NC2=C1C(=O)CC(C)(C)C2 (centres undefined),"inconclusive: 15.8 µM [cytotoxic, single point]"
8,COc1ccc(OC)c(NC(=O)Nc2nc(C(N)C(C)C)cs2)c1 (centres undefined),inactive
9,Brc1cc2c(cc1/C=N/Nc1nc3ccccc3s1)OCO2,"inconclusive: 29.1 µM [cytotoxic, single point]"
10,COc1ccccc1NC(=O)C1=C(C)N(c2ccccc2)C(=S)NC1c1cccc(C(F)(F)F)c1 (centres undefined),active: 8.2 µM
11,CC(C)CCNC(=O)COc1ccc(C(=O)c2ccccc2)cc1,inactive
12,O=Cc1cnc2ccccc2c1-c1ccccc1,inactive
13,CCC1CN(S(=O)(=O)c2cc(-c3cc(C)no3)ccc2OC)c2cc(C)ccc2O1 (centres undefined),inactive
14,CSCCC(NC(=O)c1ccccc1)C(=O)N1CC=C(c2ccccc2)CC1 (centres undefined),"inconclusive: 20.6 µM [cytotoxic, partial curve, poor fit]"
15,Cc1ccc(C(C)C)c(OCCNC(=O)c2cncc(Br)c2)c1,"inconclusive: 20.6 µM [cytotoxic, single point]"
16,CC(C)NC(=O)c1ccc2c(=O)n(C3CCCC3)c(=S)[nH]c2c1,inactive
17,COc1ccc(C(C)=O)c2c1OCCO2,"inconclusive: 7.31 µM [rising, full curve, poor fit]"
18,Cc1ccc(S(=O)(=O)N(CC(=O)NCc2ccncc2)C2CCCCC2)cc1,inactive
19,CCc1nc(N2CCCCC2)c2oc3ccccc3c2n1,"inconclusive: 14.6 µM [cytotoxic, partial curve, poor fit]"
20,COCCCNC(=O)C1CCN(C(=O)c2cc3sccc3n2Cc2ccc(F)cc2)CC1,"inconclusive: 29.1 µM [cytotoxic, single point]"
21,O=C(C1CC1)N1CCN(c2nc3ccccc3s2)CC1,"inconclusive: 29.1 µM [cytotoxic, single point]"
22,Cc1ccc(C)c2c1CCCC2=O,"inconclusive: 23.1 µM [rising, partial curve, poor fit]"

row,Structure (SMILES),Potency
1,CCOc1ccc(C(=O)Nc2nnc(SCc3cc(=O)c4cc(C)ccc4[nH]3)s2)cc1,"inconclusive: 29.1 µM [rising, single point]"
2,COc1ccc(NC(=O)NCc2ccccn2)c(OC)c1,"inconclusive: 29.1 µM [rising, single point]"
3,CCOc1ccc(N(CC(=O)NC(C)(C)C)C(=O)c2ccco2)cc1,"inconclusive: 11.6 µM [cytotoxic, partial curve, poor fit]"
4,Cc1ccc(S(=O)(=O)N2CCC(C(=O)C3C(=O)CC(C)(C)CC3=O)CC2)cc1,"inconclusive: 14.6 µM [cytotoxic, partial curve, poor fit]"
5,COC(=O)c1ccccc1Oc1c(F)c(F)nc(N2CCOCC2)c1F,"inconclusive: 20.6 µM [cytotoxic, single point]"
6,OC(COc1ccccc1)CN1CCN(c2ncccn2)CC1 (centres undefined),"inconclusive: 13 µM [cytotoxic, partial curve]"
7,CCOc1cc(S(=O)(=O)Nc2cc(C)cc(C)c2)ccc1Cl,inactive
8,COCCSc1ccccc1C(=O)Nc1cc(C)cc(C)c1,"inconclusive: 29.1 µM [cytotoxic, single point]"
9,OC(COCc1ccc(Cl)cc1)CN1CCc2ccccc2C1 (centres undefined),"inconclusive: 18.4 µM [cytotoxic, partial curve]"
10,CCn1c(SCc2ccc(C(=O)OC)o2)nnc1-c1c[nH]c2ccccc12,inactive
11,Cc1nn(-c2ccccc2)c(OC(=O)c2ccccc2F)c1S(=O)(=O)c1ccccc1,"inconclusive: 4.11 µM [rising, full curve]"
12,CC1(C(=O)NC(=S)NNC(=O)c2ccncc2)CCCCC1,"inconclusive: 2.31 µM [cytotoxic, full curve, poor fit]"
13,S=c1[nH]nc(-c2ccco2)n1/N=C/c1ccc(Br)s1,"inconclusive: 29.1 µM [cytotoxic, single point]"
14,Cn1c(CNC(=O)c2ccco2)nnc1SCC(=O)c1ccccc1,inactive
15,Cc1sc2c(c1C)c(=O)n(CCc1ccccc1)c(=O)n2Cc1ccccc1Cl,"inconclusive: 23.1 µM [rising, single point]"
16,CCOC(=O)[C@H]1[C@H]2COc3ccc(OC)cc3[C@@H]2N2C(=O)c3ccc(C)cc3NC(=O)[C@@]12C,"inconclusive: 18.4 µM [cytotoxic, single point]"
17,COc1ccccc1NC(=O)CC(=O)c1ccccc1,"inconclusive: 25.9 µM [rising, single point]"
18,COc1cccc(N2CCN(C(=O)c3cccc(NC(=O)c4nsc5ccccc45)c3)CC2)c1,inactive
19,CCn1cc(CNC(=O)c2cc(-c3ccccc3OC)nc3ccccc23)c(C)n1,"inconclusive: 18.4 µM [cytotoxic, partial curve, poor fit]"
20,CC(C)N=C(NC#N)SCc1ccccc1F,"inconclusive: 31.6 µM [cytotoxic, single point]"
21,CCCN(Cc1nnc(-c2ccccc2Cl)o1)C(=O)c1ccc(C)c(S(=O)(=O)N2CCOCC2)c1,"inconclusive: 2.59 µM [cytotoxic, full curve, poor fit]"
22,C/C(=N\N1CCN(Cc2ccc(Cl)cc2)CC1)c1ccc([N+](=O)[O-])cc1,inactive

# Fetched by structure from the entries so far (two):
row,Structure (SMILES),Potency
11,Cc1nn(-c2ccccc2)c(OC(=O)c2ccccc2F)c1S(=O)(=O)c1ccccc1,"inconclusive: 4.11 µM [rising, full curve]"
14,Cn1c(CNC(=O)c2ccco2)nnc1SCC(=O)c1ccccc1,inactive
